Reference: publication PMC11442847
Results are given in words; binding and its absence hold for the method and conditions named. Binding seen in cells or lysates may run through a third protein. Some entries that bind do so weakly or less than the wild type.

The chains behind the UniProt entries cited, without tags or fusion partners.
UniProt P08670: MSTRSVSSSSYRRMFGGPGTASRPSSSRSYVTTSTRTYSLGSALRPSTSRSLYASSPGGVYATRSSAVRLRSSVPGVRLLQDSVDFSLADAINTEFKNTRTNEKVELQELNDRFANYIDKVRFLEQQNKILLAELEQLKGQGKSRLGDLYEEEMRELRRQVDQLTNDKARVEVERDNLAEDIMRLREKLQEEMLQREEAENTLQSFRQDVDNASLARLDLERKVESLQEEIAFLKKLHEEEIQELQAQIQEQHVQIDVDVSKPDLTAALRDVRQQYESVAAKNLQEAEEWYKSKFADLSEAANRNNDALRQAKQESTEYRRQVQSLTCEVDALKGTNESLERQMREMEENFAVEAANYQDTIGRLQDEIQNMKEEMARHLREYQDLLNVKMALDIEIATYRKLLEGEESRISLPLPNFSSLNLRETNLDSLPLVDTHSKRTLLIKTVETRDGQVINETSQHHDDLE

Target: MACF1 (human (endogenous in PEO-4, SKOV-3 or T1074)) (UniProt Q9UPN3)
Assay: cross-linking; in cellulo cross-linking with mass spectrometry (XL-MS): three million PEO-4, SKOV-3 or T1074 cells in 200 µL DPBS, 2 mM DSSO, 37 °C, 1 h; subcellular fractionation, FASP digestion (trypsin/Lys-C, chymotrypsin), nanoLC-MS/MS, XlinkX in Proteome Discoverer

binding: binds
Substance: VIM (from UniProt P08670 1-466)
